Measurements taken from PMC3070698.
For at least one entry, the source does not settle the construct or the ends of the probe. Where cells or extracts were used, other partners may take part. Where a protein sequence is shown, tags need not be part of it.

Molecular target: T1, TLR9-EGFP (UniProt Q9NR96)
T1 sequence (looked up, limits assumed): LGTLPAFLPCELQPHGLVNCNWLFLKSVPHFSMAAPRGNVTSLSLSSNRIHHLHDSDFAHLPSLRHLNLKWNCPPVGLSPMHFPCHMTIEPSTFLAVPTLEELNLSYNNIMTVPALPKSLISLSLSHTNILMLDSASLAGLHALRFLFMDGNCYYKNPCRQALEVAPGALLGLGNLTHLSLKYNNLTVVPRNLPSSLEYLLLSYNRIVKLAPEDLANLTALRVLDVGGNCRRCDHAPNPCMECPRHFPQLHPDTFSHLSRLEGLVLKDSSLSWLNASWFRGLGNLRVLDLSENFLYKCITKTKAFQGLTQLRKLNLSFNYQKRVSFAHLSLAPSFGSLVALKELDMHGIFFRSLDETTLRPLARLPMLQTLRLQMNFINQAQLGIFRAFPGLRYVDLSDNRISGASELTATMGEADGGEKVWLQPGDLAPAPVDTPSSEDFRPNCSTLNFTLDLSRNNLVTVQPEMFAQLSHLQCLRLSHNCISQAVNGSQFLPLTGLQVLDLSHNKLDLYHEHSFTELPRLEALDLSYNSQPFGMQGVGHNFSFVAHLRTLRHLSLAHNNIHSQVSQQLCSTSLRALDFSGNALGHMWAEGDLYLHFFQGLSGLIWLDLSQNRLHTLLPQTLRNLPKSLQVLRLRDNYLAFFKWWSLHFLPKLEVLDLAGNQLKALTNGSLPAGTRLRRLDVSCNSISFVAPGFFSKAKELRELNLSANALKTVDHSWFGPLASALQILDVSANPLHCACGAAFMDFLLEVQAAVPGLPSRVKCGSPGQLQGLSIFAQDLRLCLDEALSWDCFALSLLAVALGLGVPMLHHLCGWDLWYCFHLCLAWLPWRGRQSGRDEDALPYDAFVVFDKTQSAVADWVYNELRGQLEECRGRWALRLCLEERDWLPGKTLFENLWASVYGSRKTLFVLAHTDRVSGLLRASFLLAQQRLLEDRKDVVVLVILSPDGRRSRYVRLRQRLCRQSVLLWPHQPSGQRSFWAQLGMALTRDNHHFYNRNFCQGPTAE
Test: FCCS (live cell)
Conditions: live HEK 293 cells, Kd calculated with TLR9 dimer concentration, 2:1 TLR9:DNA by 2dPCH; phosphorothioate backbone; In live HEK 293 cells (intracellular, endosomal compartments); protein in a lysate after overexpression; protein details: C-terminal EGFP; label: 3' Cy5; single-stranded DNA

Sequence	Kd
TGCTGCTTGTGCTTTTGTGCTT [non CpG DNA]	153 nM
TCGTCGTTTTGTCGTTTTGTCGTT [CpG DNA]	62 nM
